Results deposited as PubChem BioAssay AID1053209 (Peter MacCallum Cancer Centre, 2014)

Test: 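Gene losses that combine with doxorubicin to kill mouse bone cancer cells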 (follow-up of hits)
Cell system: mouse primary osteosarcoma cells
Knock-down reagent: single siRNA against mouse genes, 25 nM (text also states 40 nM)
Duration: about 120 h (48 h before drug, then 72 h with drug)
Treatment: doxorubicin 100 nM (about IC30-40), added 48 h after transfection, for 72 h
Read-out: 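ATP-based luminescent viability, with or without doxorubicin, relative to non-targeting control NT1, mean of two replicates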
Scale: viability with doxorubicin, vs NT1: higher = more viable cells under doxorubicin; viability ratio, doxorubicin over no drug: higher = less sensitisation to doxorubicin; viability without drug, vs NT1: higher = more viable cells without drug
Call rule: 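Counted as active (class LC dox) if viability falls to 0.7 of NT1 or below under doxorubicin but stays within 0.7 to 1.1 without drug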
The deposit covers about 1,580 reagents; shown is a part drawn at random. 207 of all reagents (13%) were called active. 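Rows are single siRNAs; four siRNAs per gene were tested, a gene counting as confirmed only when at least two agree.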 Entries without a mark were called inactive. The numbers tell different reagents against one gene apart.

no.	gene knocked down	reagent no.	combined effect class	viability with doxorubicin, vs NT1	viability ratio, doxorubicin over no drug	viability without drug, vs NT1
1	Prpf4b	1	normal viability with and without drug	1.04	0.98	1.06
2	Prpf4b	2	normal viability with and without drug	1.06	1.13	0.94
3	Prpf4b	3	normal viability with and without drug	0.83	0.93	0.89
4	Prpf4b	4	normal viability with and without drug	0.84	0.89	0.94
5	Asb14	1	normal viability with and without drug	1.02	1.09	0.94
6	Asb14	2	high viability only with doxorubicin	1.1	1.04	1.06
7	Asb14	3	low viability only with doxorubicin; normal without drug (active)	0.7	0.8	0.88
8	Asb14	4	normal viability with and without drug	1.02	1.21	0.84
9	Rps21	1	low viability only with doxorubicin; normal without drug (active)	0.62	0.75	0.83
10	Rps21	2	low viability with and without drug	0.32	0.5	0.64
11	Rps21	3	normal viability with and without drug	1.02	1.05	0.97
12	Rps21	4	low viability with and without drug	0.2	0.53	0.38
13	Top2a	1	high viability only with doxorubicin	1.29	1.29	1
14	Top2a	2	normal viability with and without drug	1.02	1.01	1.01
15	Top2a	3	high viability only with doxorubicin	1.15	1.31	0.88
16	Top2a	4	high viability only with doxorubicin	1.21	1.44	0.84
17	Pcdhga10	1	low viability only with doxorubicin; normal without drug (active)	0.63	0.67	0.94
18	Pcdhga10	2	normal viability with and without drug	1.04	0.97	1.07
19	Pcdhga10	3	normal viability with and without drug	0.88	0.96	0.92
20	Pcdhga10	4	normal viability with and without drug	0.98	1.01	0.97
21	Rpl35	1	low viability only with doxorubicin; normal without drug (active)	0.58	0.68	0.85
22	Rpl35	2	low viability with and without drug	0.2	0.59	0.34
23	Rpl35	3	low viability only with doxorubicin; normal without drug (active)	0.66	0.85	0.78
24	Rpl35	4	low viability with and without drug	0.26	0.52	0.5
25	Recql4	1	normal viability with and without drug	0.78	0.85	0.92
26	Recql4	2	normal viability with and without drug	1.04	1.18	0.88
27	Recql4	3	normal viability with and without drug	1.04	1.11	0.94
28	Recql4	4	normal viability with and without drug	1.04	1	1.04
29	Polr1a	1	low viability only with doxorubicin; normal without drug (active)	0.44	0.58	0.76
30	Polr1a	2	normal viability with and without drug	0.83	0.97	0.86
31	Polr1a	3	normal viability with and without drug	0.92	1.02	0.9
32	Polr1a	4	normal viability with and without drug	0.72	0.77	0.94
33	U2af2	1	low viability with and without drug	0.33	0.55	0.6
34	U2af2	2	low viability with and without drug	0.25	0.45	0.55
35	U2af2	3	normal viability with and without drug	0.86	1	0.86
36	U2af2	4	normal viability with and without drug	0.82	0.91	0.9
37	Rps27	1	low viability only with doxorubicin; normal without drug (active)	0.52	0.65	0.8
38	Rps27	2	normal viability with and without drug	0.76	0.9	0.84
39	Rps27	3	normal viability with and without drug	0.84	0.89	0.94
40	Rps27	4	low viability only with doxorubicin; normal without drug (active)	0.46	0.63	0.73
41	Bid	1	high viability only with doxorubicin	1.12	1.24	0.9
42	Bid	2	normal viability with and without drug	1.08	1.09	0.99
43	Bid	3	normal viability with and without drug	1.07	1.14	0.94
44	Bid	4	high viability only with doxorubicin	1.19	1.24	0.96
45	Mettl1	1	normal viability with and without drug	1.02	1	1.02
46	Mettl1	2	normal viability with and without drug	0.92	0.94	0.98
47	Mettl1	3	high viability only with doxorubicin	1.1	1.13	0.97
48	Mettl1	4	low viability only with doxorubicin; normal without drug (active)	0.43	0.57	0.75
49	Rpap3	1	high viability only with doxorubicin	1.11	1.07	1.04
50	Rpap3	2	normal viability with and without drug	1	1.04	0.96
51	Rpap3	3	normal viability with and without drug	1.04	0.97	1.07
52	Rpap3	4	normal viability with and without drug	0.76	0.86	0.88
53	Psma4	1	low viability with and without drug	0.34	0.52	0.66
54	Psma4	2	low viability with and without drug	0.35	0.58	0.6
55	Psma4	3	low viability with and without drug	0.16	0.37	0.43
56	Psma4	4	low viability with and without drug	0.32	0.47	0.68
57	Pno1	1	low viability only without drug	0.92	1.35	0.68
58	Pno1	2	low viability only with doxorubicin; normal without drug (active)	0.6	0.81	0.74
59	Pno1	3	low viability with and without drug	0.6	0.9	0.67
60	Pno1	4	low viability with and without drug	0.65	1.1	0.59

Records listed so far marked active (10):
gene knocked down	reagent no.	combined effect class	viability with doxorubicin, vs NT1	viability ratio, doxorubicin over no drug	viability without drug, vs NT1
Asb14	3	low viability only with doxorubicin; normal without drug (active)	0.7	0.8	0.88
Rps21	1	low viability only with doxorubicin; normal without drug (active)	0.62	0.75	0.83
Pcdhga10	1	low viability only with doxorubicin; normal without drug (active)	0.63	0.67	0.94
Rpl35	1	low viability only with doxorubicin; normal without drug (active)	0.58	0.68	0.85
Rpl35	3	low viability only with doxorubicin; normal without drug (active)	0.66	0.85	0.78
Polr1a	1	low viability only with doxorubicin; normal without drug (active)	0.44	0.58	0.76
Rps27	1	low viability only with doxorubicin; normal without drug (active)	0.52	0.65	0.8
Rps27	4	low viability only with doxorubicin; normal without drug (active)	0.46	0.63	0.73
Mettl1	4	low viability only with doxorubicin; normal without drug (active)	0.43	0.57	0.75
Pno1	2	low viability only with doxorubicin; normal without drug (active)	0.6	0.81	0.74
